Measured values published in paper doi:10.1101/2023.07.12.548668.
Results are given in words; binding and its absence hold for the method and conditions named. Some entries that bind do so weakly or less than the wild type.

Amino acid sequences for entries named in this document (tags omitted). Residues count along the entry.
XLF_(1-224) (folded domain of XLF) (Q9H9Q4, residues 1-224): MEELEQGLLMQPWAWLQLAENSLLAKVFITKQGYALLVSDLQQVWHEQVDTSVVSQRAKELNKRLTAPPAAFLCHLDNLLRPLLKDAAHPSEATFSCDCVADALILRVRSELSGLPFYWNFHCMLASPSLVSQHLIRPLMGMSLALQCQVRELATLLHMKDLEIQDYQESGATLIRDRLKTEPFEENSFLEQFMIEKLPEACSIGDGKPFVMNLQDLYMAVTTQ
XLFCTR (C-terminal region of XLF, residues 229-299) (Q9H9Q4, residues 229-299): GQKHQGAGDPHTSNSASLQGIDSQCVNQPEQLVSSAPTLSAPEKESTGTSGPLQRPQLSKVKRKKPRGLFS

Biological target: XLFCTR (C-terminal region of XLF, residues 229-299) (UniProt Q9H9Q4)
Assay: NMR titration; 250 uM 15N XLFCTR with one or two equivalents of unlabelled XLF_(1-224); 1H-15N HSQC chemical shifts and 15N R2; 298 K, 20 mM BisTris pH 6.5, 150 mM KCl; both purified

## XLF_(1-224) (folded domain of XLF) (from UniProt Q9H9Q4 1-224) (domain or fragment)
  binding: binds weakly
